Assay results published in the supplement of paper PMC11542785.
Structures can show the parent of a compound that is named as a salt. ± gives the standard deviation of the averaged measurements. The list shows a part of the results. Many values rest on one well or one pass, so single values are uncertain.

Test system: Drosophila melanogaster DPAGT1 (Alg7) RNAi eye model
Test: eye size Z-score vs DMSO-treated DPAGT1 model flies; higher = larger eye (suppression of DPAGT1 phenotype)
Settings: 5 uM

In the case of `Oc1ncnc2[nH]ncc12` [Allopurinol], the “eye size Z-score” value is reported as -0.2 ± 0.89.

In the case of `CO/N=C(\C(=O)N[C@@H]1C(=O)N2C(C(=O)OCOC(=O)C(C)(C)C)=C(/C=C\c3scnc3C)CS[C@H]12)c1csc(N)n1` [Cefditoren Pivoxil], the “eye size Z-score” value is reported as 1.2.

`COc1ccc(CCN(C)CCCC(C#N)(c2ccc(OC)c(OC)c2)C(C)C)cc1OC` (stereo not given) [Verapamil hydrochloride] was tested, and the “eye size Z-score” value was 0.01.

For `CC[N+]1(CC)CCC(=C(c2ccccc2)c2ccccc2)C1C` (stereo not given) [Prifinium Bromide], the “eye size Z-score” value was 0.7.

For `Cc1onc(-c2ccccc2)c1-c1ccc(S(N)(=O)=O)cc1` [Valdecoxib], the “eye size Z-score” value was -0.28.

In the case of `CCCc1cc(=O)[nH]c(=S)[nH]1` [Propylthiouracil], the “eye size Z-score” value is reported as 2.04.

For `C[N+]1(CCCCC[N+]2(C)CCCC2)CCCC1` [Pentolinium bitartrate], the “eye size Z-score” value was 1.27.

For `CCCCN(CCCC)CCC(O)c1cc2c(Cl)cc(Cl)cc2c2cc(C(F)(F)F)ccc12` (stereo not given) [Halofantrine hydrochloride], the “eye size Z-score” value was -0.08.

With `C#C[C@]1(O)CC[C@H]2[C@@H]3CCc4cc(O)ccc4[C@H]3CC[C@@]21C` [Ethinylestradiol] the “eye size Z-score” value was 0.4.

For `CCOC(=O)C1=C(C)NC(C)=C(C(=O)OCC)C1c1ccccc1/C=C/C(=O)OC(C)(C)C` [Lacidipine], the “eye size Z-score” value was 0.08.

With `CCOc1cc(CC(=O)N[C@@H](CC(C)C)c2ccccc2N2CCCCC2)ccc1C(=O)O` [Repaglinide] the “eye size Z-score” value was -1.02.

For `COc1ncnc(NS(=O)(=O)c2ccc(N)cc2)c1OC` [Sulfadoxine], the “eye size Z-score” value was -0.98.

`CC(=O)OCC(=O)[C@@]1(O)[C@H](C)C[C@H]2[C@@H]3CCC4=CC(=O)C=C[C@]4(C)[C@@]3(F)[C@@H](O)C[C@@]21C` [Dexamethasone acetate] was tested, and the “eye size Z-score” value was 0.28.

In the case of `O=C(Oc1ccccc1)c1ccccc1O` [Phenyl salicylate], the “eye size Z-score” value is reported as 0.69.

With `COc1c(N2C[C@@H]3CCCN[C@@H]3C2)c(F)cc2c(=O)c(C(=O)O)cn(C3CC3)c12` [Moxifloxacin] the “eye size Z-score” value was 0.07.

With `COc1ccc(C(=O)c2ccccc2)c(O)c1` [Oxybenzone] the “eye size Z-score” value was 0.15.

In the case of `CCCCOC(=O)c1ccccc1Nc1cccc(C(F)(F)F)c1` [Ufenamate], the “eye size Z-score” value is reported as 0.7.

`COc1ccc(C(=O)CC(=O)c2ccc(C(C)(C)C)cc2)cc1` [Avobenzone] was tested, and the “eye size Z-score” value was -0.14.

`Nc1nc2c(ncn2COCCO)c(=O)[nH]1` [Acyclovir] was tested, and the “eye size Z-score” value was 0.48.

With `CCCCCN(CCCCC)C(=O)C(CCC(=O)O)NC(=O)c1ccc(Cl)c(Cl)c1` (stereo not given) [Lorglumide sodium salt] the “eye size Z-score” value was 0.13.

In the case of `CC(C)(C)NC(=O)[C@@H]1C[C@@H]2CCCC[C@@H]2CN1C[C@@H](O)[C@H](Cc1ccccc1)NC(=O)[C@H](CC(N)=O)NC(=O)c1ccc2ccccc2n1` [Saquinavir mesylate], the “eye size Z-score” value is reported as -0.82.

With `CCCC1O[C@@H]2C[C@H]3[C@@H]4CCC5=CC(=O)C=C[C@]5(C)[C@H]4[C@@H](O)C[C@]3(C)[C@]2(C(=O)CO)O1` (stereo not given in full) [Budesonide] the “eye size Z-score” value was -0.06.

With `CC(C)Cc1ccc(C(C)C(=O)OCc2ccccn2)cc1` (stereo not given) [Ibuprofen Piconol] the “eye size Z-score” value was -0.13.

In the case of `CC(C(=O)O)c1cccc(C(=O)c2ccccc2)c1` (stereo not given) [Ketoprofen], the “eye size Z-score” value (female) is reported as 0.37.

With `CC(C)(C)C(=O)C(Oc1ccc(Cl)cc1)n1ccnc1` (stereo not given) [Climbazole] the “eye size Z-score” value was -0.48.

`Cc1ccccc1OCC(O)CO` (stereo not given) [Mephenesin] was tested, and the “eye size Z-score” value was 0.02.

`O=C1CN(/N=C/c2ccc([N+](=O)[O-])o2)C(=O)N1` [Nitrofurantoin] was tested, and the “eye size Z-score” value was 0.63.

For `C[C@H](N)[C@H](O)c1cccc(O)c1` [Metaraminol bitartrate], the “eye size Z-score” value was -0.34.

`CCN(CC)CCOC(=O)C(Cc1cccc2ccccc12)CC1CCCO1` (stereo not given) [Nafronyl oxalate] was tested, and the “eye size Z-score” value was 0.27.

With `CC1(C)S[C@@H]2[C@H](NC(=O)C(C(=O)O)c3ccccc3)C(=O)N2[C@H]1C(=O)O` (stereo not given in full) [Carbenicillin disodium salt] the “eye size Z-score” value was 1.21.

In the case of `O=C1CN(/N=C/c2ccc(-c3ccc([N+](=O)[O-])cc3)o2)C(=O)N1` [Dantrolene sodium salt], the “eye size Z-score” value is reported as 0.81.

With `CCOC(=O)n1ccn(C)c1=S` [Carbimazole] the “eye size Z-score” value was -0.21.

In the case of `O=C(O)c1ccccc1Nc1cc(Cl)ccc1C(=O)O` [Lobenzarit disodium], the “eye size Z-score” value is reported as -0.03.

With `CC1(C)S[C@@H]2[C@H](NC(=O)[C@H](C(=O)O)c3ccsc3)C(=O)N2[C@H]1C(=O)O` [Ticarcillin sodium] the “eye size Z-score” value was 0.97.

In the case of `Cc1cc(NS(=O)(=O)c2ccc(N)cc2)no1` [Sulfamethoxazole], the “eye size Z-score” value is reported as -0.67.

For `CN[C@@H]1[C@@H](O)[C@@H](O[C@@H]2[C@@H](O)[C@H](O[C@H]3OC(CN)=CC[C@H]3N)[C@@H](N)C[C@H]2N)OC[C@]1(C)O` [Sisomicin sulfate], the “eye size Z-score” value was 0.64.

`CC[C@H]1OC(=O)C[C@@H](O)[C@H](C)[C@@H](O[C@@H]2O[C@H](C)[C@@H](O[C@H]3C[C@@](C)(O)[C@@H](O)[C@H](C)O3)[C@H](N(C)C)[C@H]2O)[C@@H](CC=O)C[C@@H](C)C(=O)/C=C/C(C)=C/[C@@H]1CO[C@@H]1O[C@H](C)[C@@H](O)[C@@H](OC)[C@H]1OC` [Tylosin] was tested, and the “eye size Z-score” value was -0.06.

With `O=C(CCCCCCC(=O)Nc1ccccc1)NO` [Vorinostat] the “eye size Z-score” value was -0.97.

For `COC(=O)C1=C(C)NC(C)=C(C(=O)OC2CCCN(Cc3ccccc3)C2)C1c1cccc([N+](=O)[O-])c1` (stereo not given) [Benidipine hydrochloride], the “eye size Z-score” value was 0.37.

With `CCNC(=O)CCC/C=C\C[C@@H]1[C@@H](/C=C/[C@@H](O)CCc2ccccc2)[C@H](O)C[C@@H]1O` [Bimatoprost] the “eye size Z-score” value was 0.11.

In the case of `C[C@]12C[C@H](O)[C@H]3[C@@H](CCC4=CC(=O)CC[C@@]43C)[C@@H]1CC[C@@H]2C(=O)CO` [Corticosterone], the “eye size Z-score” value is reported as -0.07.

For `CC1(C)O[C@@H]2C[C@H]3[C@@H]4CCC5=CC(=O)C=C[C@]5(C)[C@H]4[C@@H](O)C[C@]3(C)[C@]2(C(=O)CO)O1` [Desonide], the “eye size Z-score” value was 0.53.

With `CCN(CC)C(=S)SSC(=S)N(CC)CC` [Disulfiram] the “eye size Z-score” value was -0.12.

With `C/C(=C(\CCOP(=O)(O)O)SC(=O)c1ccccc1)N(C=O)Cc1cnc(C)nc1N` [Benfotiamine] the “eye size Z-score” value was 0.65.

With `COc1cc2/c(=N/c3ccc(Br)cc3F)nc[nH]c2cc1OCC1CCN(C)CC1` [Vandetanib] the “eye size Z-score” value (female) was -0.54.
